Experimental data from publication PMC10302475.
For part of these data: For at least one entry, the source does not settle the construct or the ends of the probe. For part of these data: At least one verdict was read from the data and is not stated in words by the source.

By UniProt entry, the sequences of proteins in these tests, tags left out. Residues count along the entry.
UniProt P35712, 618-697: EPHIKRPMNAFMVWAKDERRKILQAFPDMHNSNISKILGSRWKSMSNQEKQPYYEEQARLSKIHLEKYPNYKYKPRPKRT

Tests used:
Sox6 HMG domain (human) [1] = biological target: Sox6 HMG domain (human) (UniProt P35712); test: EMSA; conditions: 10 mM Tris pH 7.4, 75 mM NaCl, 1 mM EDTA, 1 mM DTT, BSA (100 mg/mL [sic]), 0.01% NP40, 5% glycerol, 37 C; 50 nM DNA or nucleosome (Kdapp is not true Kd); recombinant protein; residues 618-697; protein details: N-terminal His (pET28b); label: 32P end label
Sox6 HMG domain (human) [2] = biological target: Sox6 HMG domain (human) (UniProt P35712); test: hydroxyl radical footprinting; conditions: all three sites protected; 10 mM Tris pH 7.4, 75 mM NaCl, 1 mM EDTA, 1 mM DTT, BSA (100 mg/mL [sic]), 0.01% NP40, 5% glycerol, 37 C; 50 nM DNA or nucleosome (Kdapp is not true Kd); recombinant protein; residues 618-697; protein details: N-terminal His (pET28b); label: 32P end label

Sequence: GCATGATTCTTAAGACCGAGTTCATCCCTTATGTGATGGACCCTATACGCGGCCGCCATCAGAATCCCGGTGCCGAGGCCGCTCAATTGGTCGTAGACAGCTCTAGCACCGCTTAAACGCACGTAGGACAATGGAGGCGCGTTTTAACCGCCAAGGGGATTACTCCCTAGTCTCCAGGCACGTGTCAGATATATACATCGATGTGCATGTATTGAACAGCGACCTTGCCGGTGCCAGTCGGATAGAATTCCGGAC (double strand) [601-SHL0 naked DNA]
- binding result (Sox6 HMG domain (human) [1]): binds

Sequence: GCATGATTCTTAAGACCGAGTTCATCCCTTATGTGATGGACCCTATACGCGGCCGCCATCAGAATCCCGGTGCCGAGGCCGCTCAATTGGTCGTAGACAGCTCTAGCACCGCTTAAACGCACGTAGGACAATGGAGGCGCGTTTTGGACAATGGAGGCATTACTCCGGACAATGGAGGCACGTGTCAGATATATACATCGATGTGCATGTATTGAACAGCGACCTTGCCGGTGCCAGTCGGATAGAATTCCGGAC (double strand) [601-SHL024 naked DNA]
- binding result (Sox6 HMG domain (human) [1]): binds
- binding result (Sox6 HMG domain (human) [2]): binds
